Reference: PubChem BioAssay AID1487 (National Center for Advancing Translational Sciences (NCATS), 2009)
Where “and” joins values, the source holds several entries; their conditions need not be identical. Equal entries are not always repeated. The list shows a part of the results. Further columns of the screen follow, without active or inactive calls. Most of these compounds were active or inconclusive in the main read-out, so they are no random draw. The note in brackets gives the kind of curve behind each potency; many fits are weak.

Experiment: qHTS Assay for Modulators of Lamin A Splicing
Conditions: HeLa LMNA splicing GFP/RFP minigene ratio, 48 h
Method in brief: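 S3 HeLa cells stably expressing lamin A-EGFP splicing minigene plus DsRed2, 600 cells/well, 48 h compound exposure at 37C. Laser-scanning cytometry; analysed as GFP (500-530 nm)/RFP (575-640 nm) total intensity ratio; 0.5% DMSO vehicle.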

[1] = measured here: GFP splicing reporter channel
[2] = measured here: RFP viability control channel

Row | Compound | AC50 [1] | AC50 [2]
1 | CC(C)(C)c1ccc(C(O)CCCN2CCC(C(O)(c3ccccc3)c3ccccc3)CC2)cc1 (stereo not given) | 12.6 µM [falling, partial curve, poor fit] and 14.1 µM [falling, partial curve, poor fit] and 8.91 µM [falling, partial curve, poor fit] | 1 µM [falling, partial curve, poor fit]
2 | O=C(Nc1nc(-c2ccc(Br)cc2)ns1)c1ccc(F)cc1 |  | 15.8 µM [rising, single point]
3 | COC(=O)Nc1nnc(Cc2ccc(OC)cc2)s1 |  | 25.1 µM [rising, single point]
4 | CCN(CC)CCOC(=O)c1ccc(NC(=O)c2ccc(Cl)c(S(=O)(=O)N3CCCCCC3)c2)cc1 | 11.2 µM [falling, single point] | 
5 | COc1cccc(CNC(=O)CN(C)S(=O)(=O)c2cnc[nH]2)c1 |  | 5.62 µM [falling, full curve, poor fit]
6 | Cn1nc(-c2ccc(Cl)cc2)c2cc(C(=O)NCCCN3CCCC3)sc21 |  | 31.6 µM [rising, single point]
7 | CCOc1cc(C(=O)Nc2ccc3c(c2)OCO3)ccc1OC(F)F | 12.6 µM [rising, partial curve] | 31.6 µM [rising, single point]
8 | COC(=O)C1=C(C)N(Cc2ccco2)C(=O)N[C@@H]1c1cccc(C(F)(F)F)c1 | 3.55 µM [rising, partial curve, poor fit] | 12.6 µM [rising, partial curve]
9 | O=C(c1ccccc1)N1CCN(CC#Cc2ccccc2)CC1 | 14.1 µM [rising, partial curve, poor fit] | 1.78 µM [rising, partial curve, poor fit]
10 | CCN(CC)c1ccc(CNC23CN4CN(CN(C4)C2)C3)cc1 |  | 20 µM [rising, single point]
11 | CSc1nc(N)c2c3c(sc2n1)COC(C(C)C)C3 (stereo not given) |  | 5.62 µM [rising, single point]
12 | Cc1cc(C)n2nc(SCC(=O)NCc3ccco3)nc2n1 |  | 0.251 µM [falling, full curve, poor fit]
13 | COc1ccc(NC(=O)Cn2c(=O)oc3cc(S(=O)(=O)NC(C)C)ccc32)cc1OC |  | 0.0224 µM [falling, full curve, poor fit]
14 | Cc1ccc(-n2cnc3cc(NCc4cccs4)ccc32)cc1 |  | 11.2 µM [rising, partial curve]
15 | O=C(NCC12CC3CC(CC(C3)C1)C2)c1cc2n(n1)C(C(F)(F)F)CC(c1ccco1)N2 (stereo not given) | 35.5 µM [falling, single point] | 35.5 µM [falling, partial curve]
16 | CNc1nc(SCc2ccccc2Cl)nc2c1CCCC2 |  | 10 µM [rising, partial curve, poor fit]
17 | Cc1noc(C)c1C(=O)Nc1sc(C)c(-c2ccccc2)c1C#N |  | 7.08 µM [rising, partial curve, poor fit]
18 | c1ccc2c(Oc3ccc4c(c3)OCO4)nncc2c1 |  | 11.2 µM [rising, partial curve, poor fit]
19 | c1ccc2nc(C3=NCCN3)ccc2c1 | 6.31 µM [falling, partial curve, poor fit] | 5.62 µM [falling, single point]
20 | NC(=O)Cc1nc(-c2ccc(Br)cc2)cs1 |  | 31.6 µM [rising, single point]
21 | CCOC(=O)c1c(C)oc2nc(C)nc(Nc3cccc(OC)c3)c12 | 2.24 µM [rising, full curve, poor fit] | 
22 | CCc1nnc(NC(=O)Cn2ccc(C(F)(F)F)n2)s1 |  | 3.98 µM [rising, single point]
23 | CCOc1cc2c(cc1OCC)C(c1ccccc1)N(c1ccc(C(=O)O)cc1)C(=O)C2 (stereo not given) | 5.62 µM [falling, single point] | 5.62 µM [falling, single point]
24 | CN1[C@@H]2CC[C@H]1CC(OC(c1ccccc1)c1ccccc1)C2 (stereo not given in full) | 7.08 µM [rising, partial curve] | 12.6 µM [rising, partial curve, poor fit]
25 | CN1C(=O)Cc2cc(S(=O)(=O)NCc3cccs3)ccc21 |  | 0.0316 µM [falling, full curve, poor fit]
26 | Cc1ccc2c(c1)C(=O)C(=O)N2CCOc1ccccc1 |  | 25.1 µM [falling, single point]
27 | S=C(Nc1ccccc1Cl)N(CCN1CCCCC1)Cc1ccco1 | 35.5 µM [rising, single point] | 

An excerpt from above in order of length of the SMILES, high to low:
Row | Compound | AC50 [1] | AC50 [2]
5 | COc1cccc(CNC(=O)CN(C)S(=O)(=O)c2cnc[nH]2)c1 |  | 5.62 µM [falling, full curve, poor fit]
11 | CSc1nc(N)c2c3c(sc2n1)COC(C(C)C)C3 (stereo not given) |  | 5.62 µM [rising, single point]
20 | NC(=O)Cc1nc(-c2ccc(Br)cc2)cs1 |  | 31.6 µM [rising, single point]
19 | c1ccc2nc(C3=NCCN3)ccc2c1 | 6.31 µM [falling, partial curve, poor fit] | 5.62 µM [falling, single point]

Going on with the list.

Row | Compound | AC50 [1] | AC50 [2]
28 | O=C(NCc1cccnc1)c1ccc(COc2ccccc2Cl)cc1 | 6.31 µM [falling, single point] | 31.6 µM [rising, single point]
29 | Cc1cc(-c2nnc(CCC(=O)NC(C)c3cccc4ccccc34)o2)no1 (stereo not given) | 2.51 µM [falling, partial curve, poor fit] | 0.2 µM [falling, full curve, poor fit]
30 | O=C1CCC(/C=C/c2ccccc2)=NN1Cc1ccc(F)cc1 | 17.8 µM [falling, partial curve] | 10 µM [falling, partial curve]
31 | O=C(CSc1nc(-c2cccs2)cc(C(F)(F)F)n1)Nc1cc(OCC(F)(F)F)cc([N+](=O)[O-])c1 | 10 µM [rising, partial curve] | 12.6 µM [rising, partial curve]
32 | O=C(Nc1cccc(S(=O)(=O)c2cccc(NC(=O)C3CC3)c2)c1)C1CC1 |  | 11.2 µM [rising, partial curve]
33 | Cc1ccc(S(=O)(=O)Nc2ccc(C(=O)Nc3ccncc3)cc2)cc1 | 7.08 µM [rising, partial curve] | 15.8 µM [rising, partial curve]
34 | CCOc1ccc(CNS(=O)(=O)c2ccc3[nH]c4c(c3c2)CCCC4)cc1OC | 10 µM [falling, partial curve] | 10 µM [falling, partial curve]
35 | Cc1ccc(S(=O)(=O)c2ccc(Cl)cc2)cc1S(=O)(=O)N1CCOCC1 | 25.1 µM [rising, single point] | 35.5 µM [rising, single point]
36 | COc1ccc(CN2CN(C(C)C)CSC2=S)cc1 | 10 µM [falling, partial curve, poor fit] | 7.08 µM [falling, full curve]
37 | O=C(CCN1CCC(c2ccccc2)C1)c1ccc2c(c1)OCCO2 (stereo not given) | 35.5 µM [falling, single point] | 3.55 µM [falling, partial curve]
38 | COc1ccc(CCNC(=O)CCCn2nc(C)c([N+](=O)[O-])c2C)cc1OC | 0.224 µM [rising, full curve, poor fit] | 
39 | CCn1c(SCC(=O)Nc2ccccc2OC)nc2ccccc2c1=O |  | 15.8 µM [rising, single point]
40 | Cn1c(=O)oc2cc(S(=O)(=O)N3CCCC(C(=O)N4CC=C(c5ccccc5)CC4)C3)ccc21 (stereo not given) |  | 11.2 µM [rising, partial curve]
41 | O=C(C[n+]1ccccc1)N/N=C/c1ccccc1[N+](=O)[O-] | 35.5 µM [rising, single point] | 
42 | O=c1cc(N2CCN(Cc3ccccc3)CC2)c(-c2ccccc2)n[nH]1 | 0.708 µM [falling, single point] | 
43 | O=C(NC(=S)N1CCN(c2ccc([N+](=O)[O-])cc2)CC1)c1ccco1 |  | 0.00447 µM [falling, full curve, poor fit]
44 | COC(=O)/C=C/C(=O)Nc1ccc(O)c(Cl)c1 | 11.2 µM [rising, partial curve, poor fit] | 14.1 µM [rising, single point]
45 | CCCn1c(=O)c(C(=O)NNS(=O)(=O)c2ccc(C)cc2)c(O)c2ccccc21 |  | 25.1 µM [rising, single point]
46 | COc1ccc(/C=N/NC(=O)CCn2cnc(-c3ccccc3)c2-c2ccccc2)cc1 | 12.6 µM [rising, partial curve] | 5.01 µM [rising, partial curve]
47 | O=C(Nc1ccccc1)/C(=C/c1ccccc1)c1ccccc1 | 35.5 µM [falling, single point] | 35.5 µM [falling, single point]
48 | O=C(Nc1nc(-c2cccs2)cs1)c1cccc(S(=O)(=O)N2CCCCC2)c1 | 8.91 µM [rising, partial curve] | 6.31 µM [rising, full curve]
49 | O=C(CC(c1ccccc1)c1ccccc1)N1CCN(c2ccccn2)CC1 | 14.1 µM [rising, partial curve, poor fit] | 
50 | CCOc1ccc(C(=O)/C=C/c2cc(OC)c(OC)c(OC)c2)cc1 |  | 35.5 µM [falling, partial curve]
51 | CCOc1ccc(-n2c(-c3ccc(Cl)cc3)c[n+]3c2SCC3)cc1 | 22.4 µM [falling, partial curve, poor fit] | 
52 | COc1cc(-c2nc(-c3cccc(C)c3)no2)cc(OC)c1OC |  | 17.8 µM [rising, partial curve, poor fit]
53 | O=C(Nc1ccc(Cl)cc1)Nc1cc(S(=O)(=O)N2CCOCC2)ccc1N1CCCC1 | 11.2 µM [rising, single point] | 12.6 µM [rising, single point]
